Measured data: PubChem BioAssay AID493246 (Drosophila RNAi Screening Center, 2011)
Test: 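Genes fly cells need to grow and stay alive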 (primary screen). Cell system: Drosophila Kc and S2R+ cells. Knock-down reagent: long dsRNA against Drosophila genes. Read-out: 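Cell number per well after knock-down, printed as raw plate values; calls were based on per-plate z-scores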. Direction: Kc cell number and S2R+ cell number: higher = more cells remaining. Hit rule: 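Counted as a hit if cell number falls by a z-score of at least 3 within its plate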.
The deposit covers about 21,000 reagents; this is a random part of those with a known target gene and a result. In the full data, 429 (2%) were called active. 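Values are raw and not normalised between plates; calls rest on per-plate z-scores that were not deposited.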 Not stated in the record: the amount of reagent, the time to read-out.

gene | DRSC id | Kc cell number, rep 1 | Kc cell number, rep 2 | S2R+ cell number, rep 1 | S2R+ cell number, rep 2 | outcome
sta (GeneID 31106) | DRSC18838 | 1.28e6 | 1.31e6 | 7.50e5 | 9.32e5 | inactive
dmrt99B (GeneID 43495) | DRSC15045 | 1.28e6 | 1.30e6 | 5.51e5 | 6.04e5 | active
beta4GalT7 (GeneID 42991) | DRSC14385 | 1.50e6 | 1.44e6 | 1.01e6 | 1.06e6 | inactive
Acp63F (GeneID 38448) | DRSC08137 | 1.48e6 | 1.57e6 | 1.03e6 | 1.19e6 | inactive
CG13332 (GeneID 36504) | DRSC06367 | 1.88e6 | 1.90e6 | 1.23e6 | 1.44e6 | inactive
hfp (GeneID 38173) | DRSC08731 | 9.23e5 | 9.81e5 | 7.79e5 | 1.01e6 | inactive
hfp (GeneID 38173) | DRSC08732 | 1.47e6 | 1.24e6 | 9.42e5 | 1.19e6 | inactive
Usp30 (GeneID 31519) | DRSC18265 | 1.78e6 | 1.76e6 | 1.07e6 | 1.24e6 | inactive
CG3927 (GeneID 37576) | DRSC04433 | 1.60e6 | 1.69e6 | 1.26e6 | 1.39e6 | inactive
Btk (GeneID 34132) | DRSC02008 | 1.50e6 | 1.59e6 | 1.25e6 | 1.38e6 | inactive
Btk (GeneID 34132) | DRSC02666 | 1.43e6 | 1.53e6 | 5.08e5 | 7.00e5 | inactive
Mlc-c (GeneID 31474) | DRSC18683 | 5.52e5 | – | 8.34e5 | – | inactive
CG31642 (GeneID 326149) | DRSC02919 | 1.28e6 | 1.70e6 | 5.07e5 | 3.21e5 | inactive

5 of these entries, reformatted.
| gene | DRSC id | Kc cell number, rep 1 | Kc cell number, rep 2 | S2R+ cell number, rep 1 | S2R+ cell number, rep 2 | outcome |
| --- | --- | --- | --- | --- | --- | --- |
| beta4GalT7 (GeneID 42991) | DRSC14385 | 1.50e6 | 1.44e6 | 1.01e6 | 1.06e6 | inactive |
| Acp63F (GeneID 38448) | DRSC08137 | 1.48e6 | 1.57e6 | 1.03e6 | 1.19e6 | inactive |
| CG13332 (GeneID 36504) | DRSC06367 | 1.88e6 | 1.90e6 | 1.23e6 | 1.44e6 | inactive |
| hfp (GeneID 38173) | DRSC08731 | 9.23e5 | 9.81e5 | 7.79e5 | 1.01e6 | inactive |
| hfp (GeneID 38173) | DRSC08732 | 1.47e6 | 1.24e6 | 9.42e5 | 1.19e6 | inactive |

Further records follow.
gene | DRSC id | Kc cell number, rep 1 | Kc cell number, rep 2 | S2R+ cell number, rep 1 | S2R+ cell number, rep 2 | outcome
CG13288 (GeneID 38665) | DRSC09962 | 1.68e6 | 1.67e6 | 1.10e6 | 1.15e6 | inactive
tgy (GeneID 32896) | DRSC20045 | 1.41e6 | 1.42e6 | 1.05e6 | 1.13e6 | inactive
Ir56b (GeneID 37250) | DRSC06543 | 1.47e6 | 1.53e6 | 1.05e6 | 1.26e6 | inactive
Ccp84Ad (GeneID 40822) | DRSC12589 | 1.40e6 | 1.31e6 | 9.43e5 | 1.11e6 | inactive
fbp (GeneID 35265) | DRSC02077 | 1.51e6 | 1.55e6 | 1.44e6 | 1.47e6 | inactive
Gr66a (GeneID 38935) | DRSC10783 | 1.58e6 | 1.44e6 | 1.15e6 | 1.26e6 | inactive
CG15741 (GeneID 32137) | DRSC19707 | 1.47e6 | 1.41e6 | 9.50e5 | 1.05e6 | inactive
Oli (GeneID 35066) | DRSC02866 | 1.27e6 | 1.34e6 | 1.20e6 | 1.21e6 | inactive
CG14717 (GeneID 41412) | DRSC14940 | 1.49e6 | 1.50e6 | 1.28e6 | 1.35e6 | inactive
Mocs1 (GeneID 39238) | DRSC11225 | 1.42e6 | 1.41e6 | 1.27e6 | 1.31e6 | inactive
CG11865 (GeneID 34917) | DRSC01872 | 1.68e6 | 1.75e6 | 1.21e6 | 1.44e6 | inactive
Ent1 (GeneID 33207) | DRSC00330 | 1.32e6 | 1.37e6 | 1.04e6 | 1.05e6 | inactive
dpr13 (GeneID 3885598) | DRSC06160 | 1.58e6 | 1.69e6 | 1.25e6 | 1.39e6 | inactive
dpr13 (GeneID 3885598) | DRSC06464 | 1.60e6 | 1.72e6 | 1.30e6 | 1.42e6 | inactive
dpr10 (GeneID 39180) | DRSC09015 | 1.35e6 | 1.44e6 | 1.12e6 | 1.22e6 | inactive
dpr10 (GeneID 39180) | DRSC09018 | 1.53e6 | 1.50e6 | 1.21e6 | 1.31e6 | inactive
dpr10 (GeneID 39180) | DRSC10159 | 1.27e6 | 1.31e6 | 1.27e6 | 1.29e6 | inactive
dpr10 (GeneID 39180) | DRSC10160 | 1.42e6 | 1.54e6 | 1.34e6 | 1.37e6 | inactive
E(spl)m3-HLH (GeneID 43156) | DRSC16694 | 1.34e6 | 1.36e6 | 6.92e5 | 7.66e5 | inactive
SelT (GeneID 33725) | DRSC02732 | 1.19e6 | 1.34e6 | 6.14e5 | 9.52e5 | inactive
Sr-CII (GeneID 44219) | DRSC07557 | 1.49e6 | 1.60e6 | 1.16e6 | 1.31e6 | inactive
mrt (GeneID 43291) | DRSC15484 | 1.51e6 | 1.59e6 | 1.05e6 | 1.16e6 | inactive
CG13587 (GeneID 37930) | DRSC04223 | 1.53e6 | 1.61e6 | 1.27e6 | 1.41e6 | inactive
CG18731 (GeneID 59246) | DRSC15377 | 1.49e6 | 1.50e6 | 1.04e6 | 1.06e6 | inactive
her (GeneID 34992) | DRSC03543 | 1.35e6 | 1.43e6 | 1.34e6 | 1.39e6 | inactive
CG1943 (GeneID 40844) | DRSC12576 | 1.37e6 | 1.55e6 | 1.20e6 | 1.29e6 | inactive
CG4815 (GeneID 43360) | DRSC15653 | 1.47e6 | 1.49e6 | 1.01e6 | 1.15e6 | inactive
